Source: the supplement of paper PMC8728848
The other results are listed elsewhere or left out.

Columns and labels:
Test in all cases: glycan array binding signal (z-score within array); higher = stronger binding
Conditions in all cases: glycan notation: IUPAC condensed, linker removed
[1] = target: Fuc(a1-3)[Gal(b1-4)]GlcNAc(b1-3)GalNAc
How it was run: (§1)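 Negative Z-scores can be read as non-binding. The Z-score is calculated within each array and then averaged across arrays of one protein sequence at different concentrations or buffers and across linkers. Arrays, 3228 in all, were curated from the Consortium for Functional Glycomics database and kept only where the protein sequence was available.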

[2] = target: Fuc(a1-3)[Gal(b1-4)]GlcNAc(b1-4)Gal(b1-4)[Fuc(a1-3)]GlcNAc
How it was run: as §1

[3] = target: Fuc(a1-3)[Gal(b1-4)]GlcNAc(b1-4)Gal(b1-4)[Fuc(a1-3)]GlcNAc(b1-4)Gal(b1-4)[Fuc(a1-3)]GlcNAc
How it was run: as §1

[4] = target: Fuc(a1-3)[Gal(b1-4)]GlcNAc(b1-6)GalNAc
How it was run: as §1

[5] = target: Fuc(a1-3)[Gal(b1-4)]GlcNAc(b1-6)[Gal(b1-3)GlcNAc(b1-3)]Gal(b1-4)Glc
How it was run: as §1

[6] = target: Fuc(a1-3)[Gal(b1-4)]GlcNAc6S
How it was run: as §1

[7] = target: Fuc(a1-3)[Gal3S(b1-4)]Glc
How it was run: as §1

[8] = target: Fuc(a1-3)[Gal3S(b1-4)]GlcNAc
How it was run: as §1

[9] = target: Fuc(a1-3)[Gal3S(b1-4)]GlcNAc6S
How it was run: as §1

[10] = target: Fuc(a1-3)[GalNAc(b1-4)]GlcNAc
How it was run: as §1

[11] = target: Fuc(a1-3)[GalNAc(b1-4)]GlcNAc6S
How it was run: as §1

Fuc(a1-4)GlcNAc = target: Fuc(a1-4)GlcNAc
How it was run: as §1

Fuc(b1-3)GlcNAc = target: Fuc(b1-3)GlcNAc
How it was run: as §1

Gal(a1-2)Gal = target: Gal(a1-2)Gal
How it was run: as §1

Gal(a1-3)Gal = target: Gal(a1-3)Gal
How it was run: as §1

Gal(a1-3)Gal(b1-3)GlcNAc = target: Gal(a1-3)Gal(b1-3)GlcNAc
How it was run: as §1

[12] = target: Gal(a1-3)Gal(b1-3)GlcNAc(b1-2)Man
How it was run: as §1

[13] = target: Gal(a1-3)Gal(b1-3)GlcNAc(b1-2)Man(a1-3)[Gal(a1-3)Gal(b1-3)GlcNAc(b1-2)Man(a1-6)]Man(b1-4)GlcNAc(b1-4)GlcNAc
How it was run: as §1

[14] = target: Gal(a1-3)Gal(b1-3)GlcNAc(b1-3)GalNAc
How it was run: as §1

[15] = target: Gal(a1-3)Gal(b1-3)GlcNAc(b1-6)GalNAc
How it was run: as §1

[16] = target: Gal(a1-3)Gal(b1-3)[Fuc(a1-4)]GlcNAc(b1-2)Man(a1-3)[Gal(a1-3)Gal(b1-3)[Fuc(a1-4)]GlcNAc(b1-2)Man(a1-6)]Man(b1-4)GlcNAc(b1-4)GlcNAc
How it was run: as §1

Gal(a1-3)Gal(b1-4)Glc = target: Gal(a1-3)Gal(b1-4)Glc
How it was run: as §1

Gal(a1-3)Gal(b1-4)GlcNAc = target: Gal(a1-3)Gal(b1-4)GlcNAc
How it was run: as §1

[17] = target: Gal(a1-3)Gal(b1-4)GlcNAc(b1-2)Man
How it was run: as §1

[18] = target: Gal(a1-3)Gal(b1-4)GlcNAc(b1-2)Man(a1-3)[Gal(a1-3)Gal(b1-4)GlcNAc(b1-2)Man(a1-6)]Man(b1-4)GlcNAc(b1-4)GlcNAc
How it was run: as §1

[19] = target: Gal(a1-3)Gal(b1-4)GlcNAc(b1-3)GalNAc
How it was run: as §1

[20] = target: Gal(a1-3)Gal(b1-4)GlcNAc(b1-6)GalNAc
How it was run: as §1

[21] = target: Gal(a1-3)Gal(b1-4)[Fuc(a1-3)]GlcNAc
How it was run: as §1

[22] = target: Gal(a1-3)Gal(b1-4)[Fuc(a1-3)]GlcNAc(b1-2)Man(a1-3)[Gal(a1-3)Gal(b1-4)[Fuc(a1-3)]GlcNAc(b1-2)Man(a1-6)]Man(b1-4)GlcNAc(b1-4)GlcNAc
How it was run: as §1

Gal(a1-3)GalNAc = target: Gal(a1-3)GalNAc
How it was run: as §1

[23] = target: Gal(a1-3)[Gal(a1-4)]Gal(b1-4)GlcNAc
How it was run: as §1

[24] = target: Gal(a1-4)Gal(b1-3)GlcNAc(b1-2)Man(a1-3)[Gal(a1-4)Gal(b1-3)GlcNAc(b1-2)Man(a1-6)]Man(b1-4)GlcNAc(b1-4)GlcNAc
How it was run: as §1

Gal(a1-4)Gal(b1-4)Glc = target: Gal(a1-4)Gal(b1-4)Glc
How it was run: as §1

Gal(a1-4)Gal(b1-4)GlcNAc = target: Gal(a1-4)Gal(b1-4)GlcNAc
How it was run: as §1

[25] = target: Gal(a1-4)Gal(b1-4)GlcNAc(b1-2)Man(a1-3)[Gal(a1-4)Gal(b1-4)GlcNAc(b1-2)Man(a1-6)]Man(b1-4)GlcNAc(b1-4)GlcNAc
How it was run: as §1

[26] = target: Gal(a1-4)Gal(b1-4)GlcNAc(b1-3)Gal(b1-4)Glc
How it was run: as §1

Gal(a1-4)GlcNAc = target: Gal(a1-4)GlcNAc
How it was run: as §1

B1: CRT-1 (Homo sapiens), P27797 (protein)
chain: MLLSVPLLLGLLGLAVAEPAVYFKEQFLDGDGWTSRWIESKHKSDFGKFVLSSGKFYGDEEKDKGLQTSQDARFYALSASFEPFSNKGQTLVVQFTVKHEQNIDCGGGYVKLFPNSLDQTDMHGDSEYNIMFGPDICGPGTKKVHVIFNYKGKNVLINKDIRCKDDEFTHLYTLIVRPDNTYEVKIDNSQVESGSLEDDWDFLPPKKIKDPDASKPEDWDERAKIDDPTDSKPEDWDKPEHIPDPDAKKPEDWDEEMDGEWEPPVIQNPEYKGEWKPRQIDNPDYKGTWIHPEIDNPEYSPDPSIYAYDNFGVLGLDLWQVKSGTIFDNFLITNDEAYAEEFGNETWGVTKAAEKQMKDKQDEEQRLKEEEEDKKRKEEEEAEDKEDDEDKDEDEEDEEDKEEDEEEDVPGQAKDEL
glycan array binding signal (z-score) [1]: 0.608 | glycan array binding signal (z-score) [2]: 1.42 | glycan array binding signal (z-score) [3]: 0.02 | glycan array binding signal (z-score) [4]: 0.585 | glycan array binding signal (z-score) [5]: 1.08 | glycan array binding signal (z-score) [6]: 0.854 | glycan array binding signal (z-score) [7]: -0.265 | glycan array binding signal (z-score) [8]: 0.572 | glycan array binding signal (z-score) [9]: 0.146 | glycan array binding signal (z-score) [10]: 0.552 | glycan array binding signal (z-score) [11]: 0.175 | glycan array binding signal (z-score) (Fuc(a1-4)GlcNAc): -0.026 | glycan array binding signal (z-score) (Fuc(b1-3)GlcNAc): -0.187 | glycan array binding signal (z-score) (Gal(a1-2)Gal): -0.019 | glycan array binding signal (z-score) (Gal(a1-3)Gal): 0.158 | glycan array binding signal (z-score) (Gal(a1-3)Gal(b1-3)GlcNAc): -0.43 | glycan array binding signal (z-score) [12]: -0.424 | glycan array binding signal (z-score) [13]: 0.598 | glycan array binding signal (z-score) [14]: 0.287 | glycan array binding signal (z-score) [15]: -0.381 | glycan array binding signal (z-score) [16]: 0.078 | glycan array binding signal (z-score) (Gal(a1-3)Gal(b1-4)Glc): -0.044 | glycan array binding signal (z-score) (Gal(a1-3)Gal(b1-4)GlcNAc): 0.249 | glycan array binding signal (z-score) [17]: -0.279 | glycan array binding signal (z-score) [18]: 0.027 | glycan array binding signal (z-score) [19]: -0.587 | glycan array binding signal (z-score) [20]: -0.547 | glycan array binding signal (z-score) [21]: 0.806 | glycan array binding signal (z-score) [22]: 0.15 | glycan array binding signal (z-score) (Gal(a1-3)GalNAc): -0.364 | glycan array binding signal (z-score) [23]: 0.255 | glycan array binding signal (z-score) [24]: 0.639 | glycan array binding signal (z-score) (Gal(a1-4)Gal(b1-4)Glc): -0.079 | glycan array binding signal (z-score) (Gal(a1-4)Gal(b1-4)GlcNAc): 0.302 | glycan array binding signal (z-score) [25]: -0.021 | glycan array binding signal (z-score) [26]: 0.412 | glycan array binding signal (z-score) (Gal(a1-4)GlcNAc): -0.007
